Consider 15 compounds from article PMC10630842, “Impact of dietary plant flavonoids on 7,8‐dihydroxyflavone transepithelial transport in human intestinal Caco‐2 cells” (Food Science & Nutrition, 2023).

For this series, the system named is Caco‐2 cell monolayers. Put plainly: TEER of cell monolayers before and after transport experiments (monolayer integrity). It is filed as cell-based, human.
Setting [1] is: 7,8-DHF 10 μmol/L alone or with named inhibitor (flavonoid equimolar, verapamil 100 μmol/L).
The mark [2] stands for this setting: 7,8-DHF+ flavonoid, molar ratios 1:2.
The mark [3] stands for this setting: 7,8-DHF+ flavonoid, molar ratios 1:4.
The mark [4] stands for this setting: 7,8-DHF+ flavonoid, molar ratios 2:1.

Each structure is given as a SMILES string.

As for `O=c1cc(-c2ccccc2)oc2c(O)c(O)ccc12` [7,8‐DHF, 7,8‐Dihydroxyflavone], under setting [1], the “TEER, AP→BL, After transport” value is on record as 353.5±7.66 Ω•cm^2; the “TEER, AP→BL, Before transport” value is reported as 368.8±13.0 Ω•cm^2; the “TEER, BL→AP, After transport” value is 333.3±5.52 Ω•cm^2; the “TEER, BL→AP, Before transport” value was 349.2±3.75 Ω•cm^2.

For the compound `O=c1cc(-c2ccccc2)oc2cc(O)c(O)c(O)c12` [Baicalein, baicalein], under setting [1], the “TEER, AP→BL, After transport” value is given as 340.9±27.3 Ω•cm^2; the “TEER, AP→BL, Before transport” value was 405.9±12.9 Ω•cm^2; the “TEER, BL→AP, After transport” value is reported as 316.3±7.54 Ω•cm^2; the “TEER, BL→AP, Before transport” value is given as 355.9±26.1 Ω•cm^2.

Regarding `COc1ccc(-c2coc3cc(O)cc(O)c3c2=O)cc1` [Biochanin A, biochanin A], under setting [1], the “TEER, AP→BL, After transport” value is recorded as 315.3±10.3 Ω•cm^2; the “TEER, AP→BL, Before transport” value is reported as 331.9±8.62 Ω•cm^2; the “TEER, BL→AP, After transport” value is recorded as 312.5±15.4 Ω•cm^2; the “TEER, BL→AP, Before transport” value is recorded as 339.5±16.9 Ω•cm^2.

As for `O=C(O[C@@H]1Cc2c(O)cc(O)cc2O[C@@H]1c1cc(O)c(O)c(O)c1)c1cc(O)c(O)c(O)c1` [EGCG, epigallocatechin gallate], under setting [1], the “TEER, AP→BL, After transport” value is 346.6±11.7 Ω•cm^2; the “TEER, AP→BL, Before transport” value was 372.9±19.6 Ω•cm^2; the “TEER, BL→AP, After transport” value was 337.2±20.5 Ω•cm^2; the “TEER, BL→AP, Before transport” value is 351.9±21.9 Ω•cm^2.

As for `O=c1c(O)c(-c2ccc(O)c(O)c2)oc2cc(O)ccc12` [Fisetin, fisetin], under setting [1], the “TEER, AP→BL, After transport” value was 310.1±8.31 Ω•cm^2; the “TEER, AP→BL, Before transport” value is recorded as 339.9±22.9 Ω•cm^2; the “TEER, BL→AP, After transport” value is recorded as 311.9±7.54 Ω•cm^2; the “TEER, BL→AP, Before transport” value is reported as 323.3±8.90 Ω•cm^2.

Turning to `O=c1c(-c2ccc(O)cc2)coc2cc(O)cc(O)c12` [Genistein, genistein], under setting [1], the “TEER, AP→BL, After transport” value is reported as 329.5±15.3 Ω•cm^2; the “TEER, AP→BL, Before transport” value is 351.8±19.6 Ω•cm^2; the “TEER, BL→AP, After transport” value is 319.6±14.3 Ω•cm^2; the “TEER, BL→AP, Before transport” value is given as 337.3±18.7 Ω•cm^2.

Consider `COc1ccc([C@@H]2CC(=O)c3c(O)cc(O)cc3O2)cc1O` [Hesperetin, hesperetin], for which, under setting [1], the “TEER, AP→BL, After transport” value is listed as 326.2±24.7 Ω•cm^2; the “TEER, AP→BL, Before transport” value is 339.9±21.0 Ω•cm^2; the “TEER, BL→AP, After transport” value is 312.9±3.31 Ω•cm^2; the “TEER, BL→AP, Before transport” value is on record as 336.9±10.9 Ω•cm^2.

With `O=c1cc(-c2ccc(O)c(O)c2)oc2cc(O)c([C@@H]3O[C@H](CO)[C@@H](O)[C@H](O)[C@H]3O)c(O)c12` [Isoorientin, isoorientin], under setting [1], the “TEER, AP→BL, After transport” value is given as 322.0±16.6 Ω•cm^2; the “TEER, AP→BL, Before transport” value was 349.3±21.9 Ω•cm^2; the “TEER, BL→AP, After transport” value is listed as 321.2±16.4 Ω•cm^2; the “TEER, BL→AP, Before transport” value was 333.8±26.6 Ω•cm^2.

Turning to `O=c1cc(-c2ccc(O)cc2)oc2cc(O)c([C@@H]3O[C@H](CO)[C@@H](O)[C@H](O)[C@H]3O)c(O)c12` [Isovitexin, isovitexin], under setting [1], the “TEER, AP→BL, After transport” value was 311.4±7.84 Ω•cm^2; the “TEER, AP→BL, Before transport” value was 321.3±8.20 Ω•cm^2; the “TEER, BL→AP, After transport” value is recorded as 374.2±18.7 Ω•cm^2; the “TEER, BL→AP, Before transport” value is given as 340.0±26.9 Ω•cm^2.

With `O=c1c(O)c(-c2ccc(O)cc2)oc2cc(O)cc(O)c12` [Kaempferol, kaempferol], the “TEER, AP→BL, After transport” value is, setting by setting: under setting [1], 312.5±13.3 Ω•cm^2; under setting [2], 320.9±16.5 Ω•cm^2; under setting [3], 355.2±22.8 Ω•cm^2; under setting [4], 333.3±25.9 Ω•cm^2. The “TEER, AP→BL, Before transport” value under setting [1] was 337.6±36.7 Ω•cm^2; the “TEER, AP→BL, Before transport” value under setting [2] is reported as 338.6±21.4 Ω•cm^2; the “TEER, AP→BL, Before transport” value under setting [3] is 400.83±26.5 Ω•cm^2; the “TEER, AP→BL, Before transport” value under setting [4] is on record as 353.2±29.9 Ω•cm^2. Also, the “TEER, BL→AP, After transport” value under setting [1] is 368.2±11.8 Ω•cm^2; the “TEER, BL→AP, After transport” value under setting [2] is recorded as 326.9±19.1 Ω•cm^2; the “TEER, BL→AP, After transport” value under setting [3] is 326.9±13.0 Ω•cm^2; the “TEER, BL→AP, After transport” value under setting [4] is on record as 325.3±16.8 Ω•cm^2. The “TEER, BL→AP, Before transport” value by setting is: under setting [1], 387.9±18.4 Ω•cm^2; under setting [2], 351.2±24.4 Ω•cm^2; under setting [3], 358.2±19.3 Ω•cm^2; under setting [4], 370.8±12.3 Ω•cm^2.

On to `O=c1c(O)c(-c2cc(O)c(O)c(O)c2)oc2cc(O)cc(O)c12` [Myricetin, myricetin], for which, under setting [1], the “TEER, AP→BL, After transport” value is reported as 321.9±10.7 Ω•cm^2; the “TEER, AP→BL, Before transport” value was 331.1±10.7 Ω•cm^2; the “TEER, BL→AP, After transport” value is listed as 324.3±12.3 Ω•cm^2; the “TEER, BL→AP, Before transport” value was 384.0±17.3 Ω•cm^2.

As to `O=C1C[C@@H](c2ccc(O)cc2)Oc2cc(O)cc(O)c21` [Naringenin, naringenin], under setting [1], the “TEER, AP→BL, After transport” value is 336.9±18.6 Ω•cm^2; the “TEER, AP→BL, Before transport” value is 363.3±15.6 Ω•cm^2; the “TEER, BL→AP, After transport” value is 325.7±16.3 Ω•cm^2; the “TEER, BL→AP, Before transport” value is given as 367.6±16.0 Ω•cm^2.

Regarding `O=c1cc(-c2ccc(O)c(O)c2)oc2c([C@@H]3O[C@H](CO)[C@@H](O)[C@H](O)[C@H]3O)c(O)cc(O)c12` [Orientin], under setting [1], the “TEER, AP→BL, After transport” value was 346.2±31.0 Ω•cm^2; the “TEER, AP→BL, Before transport” value is given as 400.93±24.3 Ω•cm^2; the “TEER, BL→AP, After transport” value is 323.2±17.5 Ω•cm^2; the “TEER, BL→AP, Before transport” value is 352.2±27.8 Ω•cm^2.

With `O=c1c(O)c(-c2ccc(O)c(O)c2)oc2cc(O)cc(O)c12` [Quercetin, quercetin], under setting [1], the “TEER, AP→BL, After transport” value was 322.0±14.9 Ω•cm^2; the “TEER, AP→BL, Before transport” value is reported as 350.8±22.1 Ω•cm^2; the “TEER, BL→AP, After transport” value was 366.0±31.6 Ω•cm^2; the “TEER, BL→AP, Before transport” value is 409.9±28.0 Ω•cm^2. Under setting [2], the “TEER, AP→BL, After transport” value is 316.6±12.2 Ω•cm^2; the “TEER, AP→BL, Before transport” value is reported as 335.2±26.4 Ω•cm^2; the “TEER, BL→AP, After transport” value is 326.5±29.4 Ω•cm^2; the “TEER, BL→AP, Before transport” value was 446.6±39.3 Ω•cm^2. Further, under setting [3], the “TEER, AP→BL, After transport” value was 337.2±20.4 Ω•cm^2; the “TEER, AP→BL, Before transport” value is reported as 350.2±27.5 Ω•cm^2; the “TEER, BL→AP, After transport” value is listed as 330.9±17.9 Ω•cm^2; the “TEER, BL→AP, Before transport” value was 443.6±38.1 Ω•cm^2. Besides, under setting [4], the “TEER, AP→BL, After transport” value was 319.9±25.7 Ω•cm^2; the “TEER, AP→BL, Before transport” value was 338.3±27.7 Ω•cm^2; the “TEER, BL→AP, After transport” value is listed as 348.9±17.0 Ω•cm^2; the “TEER, BL→AP, Before transport” value is on record as 392.3±26.4 Ω•cm^2.

As to `O=c1cc(-c2ccc(O)cc2)oc2c([C@@H]3O[C@H](CO)[C@@H](O)[C@H](O)[C@H]3O)c(O)cc(O)c12` [Vitexin, vitexin], under setting [1], the “TEER, AP→BL, After transport” value was 317.6±17.8 Ω•cm^2; the “TEER, AP→BL, Before transport” value was 334.9±22.1 Ω•cm^2; the “TEER, BL→AP, After transport” value was 318.9±13.6 Ω•cm^2; the “TEER, BL→AP, Before transport” value is 410.7±23.2 Ω•cm^2.
